In assay [1] the target is Cy5-labeled streptavidin (UniProt P22629). Kind of assay: peptide array, 5-mer library, 1J linker, Cy5-streptavidin.
Assay [2] has the same target. The assay can be described thus: peptide array, extension library XXFDEWLXX, 3Z linker.
The target is the same in assay [3]. The assay can be described thus: peptide array, extension library XXFDEWLXX, no linker.
For assay [4], the target named is streptavidin (UniProt P22629). The assay can be described thus: SPR.
Assay [5] addresses streptavidin (UniProt P22629). Kind of assay: SPR, Biacore X100, streptavidin on CM5 chip, peptide in solution.
Assay [6] addresses Cy5-labeled streptavidin (UniProt P22629). The assay can be described thus: peptide array, extension library XXPAWAHXX, no linker.
The target is the same in assay [7]. Kind of assay: peptide array, 5-mer library, 1Z linker, Cy5-streptavidin.
The target is the same in assay [8]. The assay can be described thus: peptide array, 5-mer library, no linker, Cy5-streptavidin.
The target is the same in assay [9]. The assay can be described thus: peptide array, extension library XXPAWAHXX, 3Z linker.
Assay [10] shares this target. The assay can be described thus: peptide array, 5-mer library, 3Z linker, Cy5-streptavidin.
For the next assay, the target named is Taq polymerase (UniProt P19821). The assay can be described thus: peptide array, extension library, 3Z linker.

Chains of the proteins cited; added tags and fusions are not shown.
UniProt P19821: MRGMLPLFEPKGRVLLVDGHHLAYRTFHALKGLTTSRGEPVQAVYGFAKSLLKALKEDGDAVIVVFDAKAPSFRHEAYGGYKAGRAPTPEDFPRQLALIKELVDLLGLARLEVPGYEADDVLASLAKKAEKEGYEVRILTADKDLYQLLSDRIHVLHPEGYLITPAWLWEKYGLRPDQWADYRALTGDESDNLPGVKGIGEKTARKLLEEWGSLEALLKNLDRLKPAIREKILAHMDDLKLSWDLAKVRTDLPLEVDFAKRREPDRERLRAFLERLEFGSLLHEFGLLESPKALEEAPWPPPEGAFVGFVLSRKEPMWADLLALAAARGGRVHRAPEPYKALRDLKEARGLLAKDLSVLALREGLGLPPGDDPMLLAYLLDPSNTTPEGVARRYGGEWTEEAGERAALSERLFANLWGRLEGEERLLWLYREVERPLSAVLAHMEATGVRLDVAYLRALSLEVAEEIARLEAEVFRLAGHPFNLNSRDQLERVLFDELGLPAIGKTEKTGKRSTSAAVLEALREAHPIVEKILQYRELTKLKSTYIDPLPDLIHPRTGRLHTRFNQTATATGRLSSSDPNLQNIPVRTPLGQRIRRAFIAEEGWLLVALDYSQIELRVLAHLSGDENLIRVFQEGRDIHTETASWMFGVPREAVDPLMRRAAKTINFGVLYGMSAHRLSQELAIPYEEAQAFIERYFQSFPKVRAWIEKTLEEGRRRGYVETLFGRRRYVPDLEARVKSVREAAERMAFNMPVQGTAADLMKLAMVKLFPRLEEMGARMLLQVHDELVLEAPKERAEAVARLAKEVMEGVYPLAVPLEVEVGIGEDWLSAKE

Results are given in words; binding and its absence hold for the method and conditions named. Some results given as binding are weak or reduced against the parent protein; the word gives no strength.

Turning to FYGKY, in the assay with Cy5-labeled streptavidin [1], the binding entry was “binds”.

Take NSFDEWLNQ: the binding result with Cy5-labeled streptavidin [2] and with Cy5-labeled streptavidin [3] was “binds” each time.

GNSFDDWLASKG (C-terminal amide): the binding result in the assay with streptavidin [4] and with streptavidin [5] was “binds” each time.

For the molecule YGPAWAHGG, the binding entry with Cy5-labeled streptavidin [6] is “binds”.

As to FDEWL, the binding result in the assay with Cy5-labeled streptavidin [7] is recorded as “binds”.

For NSFDEWLAN, the binding entry with Cy5-labeled streptavidin [2] is reported as “binds”.

Take LRFDT: the binding entry with Cy5-labeled streptavidin [8] is “binds”.

On to FAPAWAHGG, for which the binding result with Cy5-labeled streptavidin [6] was “binds”.

As to PAWAH, the binding entry with Cy5-labeled streptavidin [7] is given as “binds”.

Consider LGEYH, for which the binding result with Cy5-labeled streptavidin [7] was “binds”.

Take NAWAH: the binding result with Cy5-labeled streptavidin [8] was “binds”.

Consider NSFDEWLQK, for which, in the assay with Cy5-labeled streptavidin [2], the binding result is listed as “binds”.

Regarding RAPAWAHGG, in the assay with Cy5-labeled streptavidin [9], the binding result is recorded as “binds”.

NSFDEWLAG: the binding result with Cy5-labeled streptavidin [3] is “binds”.

With WTHPQFEQK [NH2-…-COOH], in the assay with streptavidin [4], the binding entry is recorded as “binds”.

With LAEYH, in the assay with Cy5-labeled streptavidin [10], the binding entry was “binds”.

EWVHPQFEQKAK (C-terminal amide): in the assay with streptavidin [4], the binding entry is recorded as “binds”.

As to DSFDEWLAG, the binding entry with Cy5-labeled streptavidin [3] was “binds”.

With WRGWL, the binding entry with Cy5-labeled streptavidin [8] is “binds”.

Turning to QQHEFSFAQ, in the assay with Taq polymerase, the binding entry is given as “binds”.

As to NYPDW, the binding result with Cy5-labeled streptavidin [10] is “binds”.

For the molecule PAPAWAHGG, the binding entry with Cy5-labeled streptavidin [9] and with Cy5-labeled streptavidin [6] was “binds” each time.

As for SWDKW, the binding entry with Cy5-labeled streptavidin [10] was “binds”.

Take WTHPQFEQPKA (C-terminal amide): in the assay with streptavidin [4], the binding entry is on record as “binds”.

On to AFPDYLAEYHGG (C-terminal amide), for which, in the assay with streptavidin [4], the binding result is “binds”.

YGPYK: the binding entry with Cy5-labeled streptavidin [1] was “binds”.

Consider PVPAWAHGG, for which the binding entry with Cy5-labeled streptavidin [9] was “binds”.

Consider DPFGW, for which the binding entry with Cy5-labeled streptavidin [7] and in the assay with Cy5-labeled streptavidin [10] was “binds” each time.

(Values after patent US20160305952A1.)
